Results are given in words; binding and its absence hold for the method and conditions named. Some entries that bind do so weakly or less than the wild type.

Protein sequences, listed by entry. Tags and fused reporters are not part of them. Lines headed by an entry give the natural chain unless they say otherwise; changes in a name come on top. Residues count along the entry.
UniProt O00206, residues 24-839: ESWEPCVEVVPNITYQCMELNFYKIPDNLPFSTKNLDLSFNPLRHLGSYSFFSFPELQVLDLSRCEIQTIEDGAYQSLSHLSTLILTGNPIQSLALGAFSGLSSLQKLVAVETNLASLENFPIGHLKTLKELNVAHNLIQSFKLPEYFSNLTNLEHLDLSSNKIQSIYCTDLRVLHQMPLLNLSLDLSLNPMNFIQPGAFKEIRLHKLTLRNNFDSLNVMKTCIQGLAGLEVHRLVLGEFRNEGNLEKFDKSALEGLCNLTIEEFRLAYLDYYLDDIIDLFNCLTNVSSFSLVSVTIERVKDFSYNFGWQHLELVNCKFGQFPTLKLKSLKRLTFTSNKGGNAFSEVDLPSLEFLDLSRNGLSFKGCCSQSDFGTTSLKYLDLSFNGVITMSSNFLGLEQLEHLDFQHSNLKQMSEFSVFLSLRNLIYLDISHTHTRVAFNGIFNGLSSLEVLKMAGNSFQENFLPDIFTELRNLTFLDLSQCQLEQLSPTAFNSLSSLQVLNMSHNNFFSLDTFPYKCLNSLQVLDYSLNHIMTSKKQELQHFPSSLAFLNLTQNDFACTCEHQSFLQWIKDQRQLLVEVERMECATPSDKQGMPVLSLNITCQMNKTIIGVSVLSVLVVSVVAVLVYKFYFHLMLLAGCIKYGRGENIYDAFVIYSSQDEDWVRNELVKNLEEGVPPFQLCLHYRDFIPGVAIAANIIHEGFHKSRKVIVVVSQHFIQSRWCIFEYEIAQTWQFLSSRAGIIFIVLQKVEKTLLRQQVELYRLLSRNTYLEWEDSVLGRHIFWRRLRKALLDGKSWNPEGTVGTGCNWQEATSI
UniProt P11276: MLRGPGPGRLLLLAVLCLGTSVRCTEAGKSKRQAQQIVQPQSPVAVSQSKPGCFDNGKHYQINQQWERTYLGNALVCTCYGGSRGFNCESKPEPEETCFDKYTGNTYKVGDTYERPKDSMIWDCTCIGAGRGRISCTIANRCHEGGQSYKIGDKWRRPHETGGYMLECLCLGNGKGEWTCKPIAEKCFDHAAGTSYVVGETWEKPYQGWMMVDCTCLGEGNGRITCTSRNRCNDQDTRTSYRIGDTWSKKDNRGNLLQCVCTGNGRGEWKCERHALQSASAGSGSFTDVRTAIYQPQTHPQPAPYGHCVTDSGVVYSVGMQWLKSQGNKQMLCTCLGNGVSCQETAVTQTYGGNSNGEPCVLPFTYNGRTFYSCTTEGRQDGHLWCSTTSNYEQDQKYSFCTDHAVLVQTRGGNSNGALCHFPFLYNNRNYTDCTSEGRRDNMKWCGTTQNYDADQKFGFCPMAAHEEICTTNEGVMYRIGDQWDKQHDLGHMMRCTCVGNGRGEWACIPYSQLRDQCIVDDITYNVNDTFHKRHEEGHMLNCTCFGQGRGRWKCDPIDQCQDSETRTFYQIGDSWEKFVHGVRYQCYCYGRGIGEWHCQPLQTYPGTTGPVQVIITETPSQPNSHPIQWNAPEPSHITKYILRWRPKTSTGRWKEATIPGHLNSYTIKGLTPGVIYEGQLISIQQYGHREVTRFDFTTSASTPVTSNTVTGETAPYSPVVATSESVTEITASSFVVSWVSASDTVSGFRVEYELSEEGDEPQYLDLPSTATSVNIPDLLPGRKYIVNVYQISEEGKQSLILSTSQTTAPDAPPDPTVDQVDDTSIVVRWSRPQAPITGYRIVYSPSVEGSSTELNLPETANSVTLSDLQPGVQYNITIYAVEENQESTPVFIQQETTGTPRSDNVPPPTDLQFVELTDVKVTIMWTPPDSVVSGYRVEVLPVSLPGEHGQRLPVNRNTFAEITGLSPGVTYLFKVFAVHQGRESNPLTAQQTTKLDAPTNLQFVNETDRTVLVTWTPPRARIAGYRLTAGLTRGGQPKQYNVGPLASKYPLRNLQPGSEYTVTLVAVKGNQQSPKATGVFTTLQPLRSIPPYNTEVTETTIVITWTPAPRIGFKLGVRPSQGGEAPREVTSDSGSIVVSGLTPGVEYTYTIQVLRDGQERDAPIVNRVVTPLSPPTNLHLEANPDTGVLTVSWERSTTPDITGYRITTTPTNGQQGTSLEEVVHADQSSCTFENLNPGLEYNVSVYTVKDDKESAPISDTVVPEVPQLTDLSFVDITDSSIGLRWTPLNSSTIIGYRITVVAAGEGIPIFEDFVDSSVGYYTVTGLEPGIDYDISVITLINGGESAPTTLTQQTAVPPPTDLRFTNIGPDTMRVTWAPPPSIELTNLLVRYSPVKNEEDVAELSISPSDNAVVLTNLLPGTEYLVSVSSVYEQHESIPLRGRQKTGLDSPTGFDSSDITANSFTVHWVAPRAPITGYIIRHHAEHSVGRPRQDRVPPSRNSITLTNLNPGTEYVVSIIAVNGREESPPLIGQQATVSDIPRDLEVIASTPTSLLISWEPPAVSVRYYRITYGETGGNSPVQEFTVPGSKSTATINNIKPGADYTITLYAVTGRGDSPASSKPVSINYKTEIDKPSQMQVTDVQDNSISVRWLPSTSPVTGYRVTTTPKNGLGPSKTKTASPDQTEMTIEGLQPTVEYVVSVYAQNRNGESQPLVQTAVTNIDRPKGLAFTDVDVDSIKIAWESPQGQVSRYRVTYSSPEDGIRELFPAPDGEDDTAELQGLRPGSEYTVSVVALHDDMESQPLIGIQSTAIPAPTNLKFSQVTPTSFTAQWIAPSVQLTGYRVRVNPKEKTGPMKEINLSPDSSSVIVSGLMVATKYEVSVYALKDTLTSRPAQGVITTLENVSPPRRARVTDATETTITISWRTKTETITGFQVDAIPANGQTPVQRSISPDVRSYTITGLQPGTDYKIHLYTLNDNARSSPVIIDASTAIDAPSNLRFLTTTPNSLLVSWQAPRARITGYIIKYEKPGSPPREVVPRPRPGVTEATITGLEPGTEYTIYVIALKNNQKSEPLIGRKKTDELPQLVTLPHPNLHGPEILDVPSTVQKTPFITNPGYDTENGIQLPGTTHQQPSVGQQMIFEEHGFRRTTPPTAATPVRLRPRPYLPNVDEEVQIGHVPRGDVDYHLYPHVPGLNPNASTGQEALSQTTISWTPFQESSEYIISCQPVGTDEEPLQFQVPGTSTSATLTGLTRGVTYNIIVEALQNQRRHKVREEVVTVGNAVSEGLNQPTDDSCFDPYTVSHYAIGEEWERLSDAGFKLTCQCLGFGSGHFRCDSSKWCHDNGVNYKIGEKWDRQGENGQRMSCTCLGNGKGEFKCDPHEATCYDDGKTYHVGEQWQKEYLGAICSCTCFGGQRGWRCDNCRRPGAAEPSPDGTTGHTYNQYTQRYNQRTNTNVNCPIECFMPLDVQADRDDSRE

The test deals with human TLR4 (Toll-like receptor 4) on HEK293 cells expressing human TLR4-MD2-CD14 (human) (UniProt O00206). In words: cell adhesion assay; tritiated thymidine labelled HEK hTLR4 or HEK LacZ cells on wells coated with EDA protein.

Regarding “EDA protein (recombinant fibronectin Extra domain A, from plasmid pET20bEDA1.2) (from UniProt P11276 1721-1810) (ligand)”, the binding result is reported as “binds”.

The values above are taken from patent US20090220532A1 (PROYECTO DE BIOMEDICINA CIMA S L, published 2009).
